In brackets after ≈: the same amount, converted by molar mass.
Test system: Escherichia coli MC4100 harboring the IMP4213 (E. coli IMP)
Experiment: microbe, parasite or virus in culture
Type: cell-based
Conditions: 22 h, read-out: MIC (μg/mL) E. coli IMP, E. coli MC4100 IMP4213, increased outer-membrane permeability, 35° C.
Description: In vitro antimicrobial activity of each compound was determined by measuring minimal inhibitor concentrations (MICs) using the broth micro-dilution technique as approved by the Clinical and Laboratory Standards Institute (CLSI) (Methods for Dilution Antimicrobial Susceptibility Tests for Bacteria that Grow Aerobically; Approved Standard—Eighth Edition. CLSI document M07-A8. Wayne, Pa.: Clinical and Laboratory Standards; 2009). Antibacterial activity was measure against three strains of bacteria: a Methicillin Resistant Staphylococcus aureus strain USA 300, NRS384 (S. aureus); a strain of Escherichia coli MC4100 harboring the IMP4213 (E. coli IMP), which results in increased outer-membrane permeability (B Martin and Silhavy T. Imp/OstA is required for cell envelope biogenesis in Escherichia coli. (2002) Molecular Microbiology, 45(5), 1289-1302), and Escherichia coli ATCC 25922 (E. coli), a clinically relevant Gram-negative strain. Cells were inoculated onto plates of Trypyticase Soy Agar or Luria Agar respectively and grown at 35° C. for 20 hours. Inocula suspensions were prepared by scraping cells into 1 mL of testing media (cation adjusted Mueller Hinton Broth supplemented with 0.002% v/v Tween-80) and diluting to a final OD600 nm of 0.01.
Test compounds were prepared in DMSO at a concentration of 10 mg/mL. […]

Cc1cc(Oc2ccc(C(C)(C)C)cc2)ccc1C(=O)N[C@@H](CCN)C(=O)N(C)[C@@H]1C(=O)N[C@@H](C)C(=O)N[C@H](C(=O)NCC#N)Cc2ccc(OCCN)c(c2)-c2cc1ccc2OCCN [Compound 302]
MIC: 0.016 µg/mL (≈ 0.0177 µM)
